Experimental data published in patent publication US10507212B2, “Method for use of homopiperazinium compounds in the treatment of cancer” (UNIVERSITÉ LAVAL, priority 2014, dated 2019).

Tests used:
[1] = test system: A549 adenocarcinoma cell line; assay: Cell proliferation assay, A549 (MTT); conditions: A549, day 3 and day 6, text on figures
Procedure: (§1) In vitro experiments were conducted on four cancer cell lines: the A549 adenocarcinoma cell line, the H520 squamous cell carcinoma the H82 small cell lung carcinoma and Calu 3 lung adenocarcinoma. The A549 tumor cells, were plated at a density of 1.5×10^4 cells per mL and let to adhere on 96-well microplates in F12K cell culture medium enriched with 10% fetal calf serum (FCS). The H520, H82 and Calu 3 tumor cells were plated at a density of 5×10^4 cells per mL in RPMI+10% FCS. After 24 h in culture, the medium was changed and cells were exposed to ASM-024 at concentrations ranging from 10^−7M to 10^−3M (FIGS. 1A-1C). After 3 and 6 days in culture, cell growth was quantified using the MTT colorimetric assay (M2128, Sigma) at 575-690 nm or the Cell Titer fluorescence assay (G8080, Promega) at 560/590 nm.
(§2) In an another set of experiments, a series of 16 other homopiperazinium compounds, in addition to ASM-024, were tested for their anti-proliferative effect on the four tumor cell lines described above after up to 6 days in culture at concentrations of 10^-7M to 10^-3M. (FIGS. 4A-4E) Cell growth was quantified using the MTT colorimetric assay for the A-549, H520 and Calu 3 cell lines and the CellTiter Fluorescence assay.for the H82 tumor cell line These are established method of determining viable cell number in proliferation studies.

[2] = test system: H520 squamous cell carcinoma; assay: Cell proliferation assay, H520 (MTT); assay type: cell-based; conditions: H520, day 3 and day 6, text on figures
Procedure: as §1, §2

[3] = test system: H82 small cell lung carcinoma; assay: Cell proliferation assay, H82 (CellTiter fluorescence); assay type: cell-based; conditions: H82, day 3 and day 6, text on figures
Procedure: as §1, §2

Measured: cell proliferation / cell growth inhibition (in words)

CC(C)[N+]1(C)[C@@H]2CC[C@H]1C[C@@H](OC(=O)C(CO)c1ccccc1)C2 (stereo partly drawn) [ipratropium, reference compound]
no significant cell growth inhibition: all assays above
